This passage reports binding signal results from PMC7862700.

The entries are a selection whose mix differs from that of the whole data set. For part of these data: At the low end of the ranking the order means little. The list shows a part of the results. For part of these data: The source does not settle which construct or isoform was used.

Holding throughout (experiment): DAPPL (digital affinity profiling via proximity ligation, sequencing)
Common to all, as to conditions: 10 mM Tris-HCl pH 7.5, 50 mM NaCl, 1 mM DTT, 4% glycerol, room temperature, 30 min; GST-TFs on glutathione beads, 16-mer random dsDNA library, 0.1% …; high values mean tight binding; double strand, one strand shown; scale: fold enrichment (6-mer frequency, TF over GST control)

For one assay, the target named is T1, GABPA (UniProt Q06546).
T1 sequence: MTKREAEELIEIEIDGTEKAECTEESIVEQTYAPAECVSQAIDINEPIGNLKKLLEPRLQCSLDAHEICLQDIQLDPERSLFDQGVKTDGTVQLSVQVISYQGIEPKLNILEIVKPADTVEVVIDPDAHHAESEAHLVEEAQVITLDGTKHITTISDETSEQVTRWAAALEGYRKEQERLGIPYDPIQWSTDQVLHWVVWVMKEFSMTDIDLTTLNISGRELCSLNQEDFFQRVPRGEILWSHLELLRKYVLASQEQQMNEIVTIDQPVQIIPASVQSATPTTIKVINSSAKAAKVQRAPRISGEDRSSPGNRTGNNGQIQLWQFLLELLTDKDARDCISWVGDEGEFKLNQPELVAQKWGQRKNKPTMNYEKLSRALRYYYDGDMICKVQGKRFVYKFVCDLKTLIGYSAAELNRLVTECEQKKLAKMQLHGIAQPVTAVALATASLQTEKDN

In the next assay the target is T2, ETS1 (UniProt P14921).
T2 sequence: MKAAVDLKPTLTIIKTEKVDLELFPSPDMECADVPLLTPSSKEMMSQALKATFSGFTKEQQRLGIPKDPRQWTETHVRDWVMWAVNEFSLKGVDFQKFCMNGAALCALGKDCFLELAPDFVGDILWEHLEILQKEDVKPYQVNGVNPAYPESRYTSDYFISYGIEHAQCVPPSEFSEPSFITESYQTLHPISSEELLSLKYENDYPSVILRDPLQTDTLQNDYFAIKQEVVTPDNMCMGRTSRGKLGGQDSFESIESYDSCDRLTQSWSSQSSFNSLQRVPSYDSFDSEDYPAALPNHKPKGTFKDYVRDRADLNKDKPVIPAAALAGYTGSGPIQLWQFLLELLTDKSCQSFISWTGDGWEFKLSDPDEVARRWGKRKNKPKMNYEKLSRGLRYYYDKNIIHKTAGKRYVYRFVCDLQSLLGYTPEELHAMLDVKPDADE

The next assay concerns the target T3, SPDEF (UniProt O95238).
T3 sequence: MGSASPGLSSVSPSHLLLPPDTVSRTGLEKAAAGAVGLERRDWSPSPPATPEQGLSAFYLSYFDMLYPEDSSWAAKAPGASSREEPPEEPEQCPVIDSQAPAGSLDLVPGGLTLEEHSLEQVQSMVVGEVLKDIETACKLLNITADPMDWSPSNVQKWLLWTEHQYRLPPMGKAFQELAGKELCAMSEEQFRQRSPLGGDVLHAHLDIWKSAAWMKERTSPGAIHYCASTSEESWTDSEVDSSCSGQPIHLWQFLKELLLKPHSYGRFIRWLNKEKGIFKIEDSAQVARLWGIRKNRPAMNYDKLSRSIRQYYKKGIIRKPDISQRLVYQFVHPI

For ACTTGC, the results for the binding signal in the assay with GABPA, with ETS1 and with SPDEF were 1.42, 1.45 and 1.44, respectively.

As to CGCCAT, the values for the binding signal with GABPA, with ETS1 and with SPDEF were 0.975, 1.06 and 0.985, respectively.

CTGGCG: the figures for the binding signal in the assay with GABPA, with ETS1 and with SPDEF were 0.761, 0.766 and 0.806, respectively.

For TAAGAC, the results for the binding signal with GABPA, in the assay with ETS1 and with SPDEF were 0.927, 0.925 and 0.883, respectively.

Take GCTTGG: the binding signal in the assay with GABPA stood at 1.12; with ETS1 it was 1.1; with SPDEF, 1.08.

Consider AGCTGA, for which the binding signal in the assay with GABPA came to 1.01; with ETS1, 1.03; with SPDEF, 0.872.

On to TCGAGA, for which the binding signal with GABPA is 0.63; with ETS1, 0.66; with SPDEF it was 0.573.

Regarding GACGTT, the binding signal with GABPA turned out to be 0.915; in the assay with ETS1, 0.9; with SPDEF, 0.937.

With AATGTG, the binding signal with GABPA came out at 0.996; in the assay with ETS1, 0.929; with SPDEF, 0.986.

AGGTCC: the figures for the binding signal with GABPA, with ETS1 and in the assay with SPDEF were 0.995, 1 and 1.24, respectively.

As for GACCGC, the binding signal stood at 1.06 with GABPA, 0.909 in the assay with ETS1 and 0.898 in the assay with SPDEF.

TGACAT: the binding signal in the assay with GABPA was found to be 1.31; with ETS1, 1.07; with SPDEF, 1.25.

As to GGACTC, the binding signal with GABPA was 1.07; with ETS1, 1.06; with SPDEF it was 0.956.

GCTAAG: the values for the binding signal with GABPA, with ETS1 and in the assay with SPDEF were 0.954, 1.01 and 1.11, respectively.

On to GTGCTG, for which the binding signal in the assay with GABPA worked out at 0.811; in the assay with ETS1, 0.787; with SPDEF, 0.818.

For CCGTTA, the figures for the binding signal with GABPA, with ETS1 and with SPDEF were 0.981, 0.995 and 1.04, respectively.

Consider GACATG, for which the values for the binding signal with GABPA, with ETS1 and in the assay with SPDEF were 0.989, 0.777 and 0.957, respectively.

Regarding CGGCAA, the values for the binding signal with GABPA, with ETS1 and with SPDEF were 0.938, 0.965 and 0.947, respectively.

Turning to CATGGC, the binding signal with GABPA was found to be 0.96; in the assay with ETS1 it was 1.05; with SPDEF it was 0.803.

Consider CAGACT, for which the binding signal with GABPA worked out at 1.06; in the assay with ETS1, 0.929; with SPDEF, 0.987.

Regarding TCGATA, the binding signal with GABPA stood at 1.08; in the assay with ETS1 it was 1.06; with SPDEF, 1.07.

Consider TAAGGC, for which the results for the binding signal in the assay with GABPA, with ETS1 and with SPDEF were 0.924, 1.03 and 0.966, respectively.

In the case of GTCTGG, the binding signal with GABPA turned out to be 0.875; in the assay with ETS1 it was 0.824; with SPDEF it was 0.861.

For the sequence TCGCGA, the results for the binding signal in the assay with GABPA, in the assay with ETS1 and with SPDEF were 0.832, 0.975 and 0.809, respectively.

On to TATTAG, for which the binding signal stood at 0.991 in the assay with GABPA, 1.06 in the assay with ETS1 and 1.06 with SPDEF.

In the case of GCAGAT, the binding signal with GABPA amounted to 0.929; with ETS1, 0.991; in the assay with SPDEF, 0.896.

On to GTGCCC, for which the binding signal with GABPA is 1.01; in the assay with ETS1, 0.896; with SPDEF, 0.971.

Turning to GGCCTC, the values for the binding signal with GABPA, with ETS1 and in the assay with SPDEF were 1.26, 1.1 and 1.08, respectively.

TCACGG: the binding signal with GABPA was found to be 0.943; with ETS1 it was 1.09; with SPDEF, 1.1.

CATATG: the binding signal is 1.09 in the assay with GABPA, 1.03 in the assay with ETS1 and 0.98 with SPDEF.

As to TTGGGA, the binding signal worked out at 0.988 in the assay with GABPA, 0.954 with ETS1 and 0.933 in the assay with SPDEF.

On to TACGGG, for which the binding signal is 0.891 in the assay with GABPA, 1.01 in the assay with ETS1 and 0.899 with SPDEF.

For the sequence TCATAG, the binding signal in the assay with GABPA was 0.935; with ETS1 it was 0.932; in the assay with SPDEF it was 0.909.

With GAAAGG, the binding signal with GABPA amounted to 0.969; with ETS1 it was 0.927; in the assay with SPDEF it was 0.977.

Regarding TCATGG, the binding signal was determined as 1.11 with GABPA, 1.1 with ETS1 and 0.986 in the assay with SPDEF.

For the sequence AGTATA, the values for the binding signal with GABPA, in the assay with ETS1 and in the assay with SPDEF were 0.975, 0.985 and 0.933, respectively.

As for GTGGTA, the binding signal turned out to be 0.917 in the assay with GABPA, 0.991 with ETS1 and 0.871 with SPDEF.

CCAAGA: the figures for the binding signal in the assay with GABPA, in the assay with ETS1 and with SPDEF were 0.977, 0.88 and 0.927, respectively.

Take CATTAG: the binding signal worked out at 0.865 with GABPA, 1.04 with ETS1 and 0.988 in the assay with SPDEF.

For ACAAAA, the binding signal was 1.15 with GABPA, 1.17 in the assay with ETS1 and 1.11 in the assay with SPDEF.

Turning to GATTAG, the values for the binding signal with GABPA, in the assay with ETS1 and with SPDEF were 0.925, 0.92 and 0.874, respectively.

Consider CCCGGT, for which the binding signal with GABPA is 0.965; with ETS1 it was 1.09; in the assay with SPDEF, 1.11.

Turning to GTACAG, the binding signal with GABPA was 0.986; with ETS1 it was 0.971; in the assay with SPDEF it was 0.948.

Turning to TTAGTC, the binding signal turned out to be 0.83 with GABPA, 0.871 in the assay with ETS1 and 0.773 with SPDEF.

As to GTGGAT, the binding signal with GABPA is 0.801; with ETS1 it was 0.972; with SPDEF, 0.83.

Turning to CAGAAA, the binding signal stood at 0.936 in the assay with GABPA, 0.922 in the assay with ETS1 and 0.906 in the assay with SPDEF.

In the case of CGAAGA, the binding signal with GABPA came to 0.802; with ETS1, 0.822; with SPDEF, 0.773.

Regarding GCCCGA, the values for the binding signal with GABPA, with ETS1 and with SPDEF were 1.02, 0.995 and 0.983, respectively.

Take GGCGTT: the binding signal was 0.909 with GABPA, 1.04 with ETS1 and 0.93 with SPDEF.

Take TCCGAT: the results for the binding signal with GABPA, in the assay with ETS1 and with SPDEF were 1.17, 1.23 and 1.34, respectively.

For AGACTC, the binding signal with GABPA was 0.88; with ETS1 it was 0.952; in the assay with SPDEF, 0.873.

CGAGGT: the values for the binding signal with GABPA, with ETS1 and in the assay with SPDEF were 0.96, 0.923 and 0.994, respectively.

Regarding GCAAGC, the binding signal with GABPA worked out at 0.99; with ETS1 it was 0.86; with SPDEF, 0.821.

For TGCGGT, the values for the binding signal with GABPA, with ETS1 and with SPDEF were 0.932, 0.904 and 0.889, respectively.

As for TAACAG, the binding signal in the assay with GABPA stood at 0.967; with ETS1, 1.05; with SPDEF, 1.11.

As to TACGGC, the binding signal came out at 1.23 with GABPA, 1.13 in the assay with ETS1 and 1.18 with SPDEF.

For the sequence GTGCAC, the binding signal with GABPA is 0.99; with ETS1, 0.894; with SPDEF, 0.857.

Turning to CGGACC, the binding signal in the assay with GABPA was 0.764; in the assay with ETS1, 0.838; with SPDEF, 0.997.

On to ATCCGG, for which the binding signal is 2.37 with GABPA, 2.39 with ETS1 and 4.67 with SPDEF.
